Patent US9365598B2, “Phosphine derivatives of fluorescent compounds” (Pierce Biotechnology, Inc., priority 2011, dated 2016)

Legend:
azido-PEG4-GAM = assay: Labeling efficiency (D/P), compound-PEG4-GAM conjugates; settings: GAM-containing conjugates
azide-PEG4-GAR = assay: Labeling efficiency (moles of dye per mole of protein, D/P), compound-PEG4-GAR conjugates; parameters: species or system goat; settings: GAR-containing conjugates; 10× molar ratio

2-((1E,3E)-3-(1-(6-(2-(3-(diphenylphosphino)-4-(methoxycarbonyl)benzamido)ethylamino)-6-oxohexyl)-3-methyl-5-sulfonato-3-(3-sulfonatopropyl)indolin-2-ylidene)prop-1-enyl)-1-(2-methoxyethyl)-3-methyl-3-(3-sulfonatopropyl)-3H-indolium-5-sulfonate [550 Compound 1-phosphine]
decrease in mole dye to mole protein ratio (D/P) versus DyLight 549 (azido-PEG4-GAM): 2%
increase in mole dye to mole protein ratio (D/P) over DyLight 549 or DyLight 649 (azide-PEG4-GAR): 25%
